Reference: the supplement of paper PMC10663445
Where a name gives a salt, the structure may show the parent alone. ± gives the standard deviation of the averaged measurements. This is one part of the list. Many values rest on one well or one pass, so single values are uncertain.

test system: hsa-miR-132-3p; test: miR-132-3p level in NGN2-iNs after compound treatment (TMM-normalised, ComBat batch-corrected) (batch-corrected normalised expression (arbitrary units)); higher = higher miR-132-3p expression; details: 10 µM; 24 h; human iPSC-derived NGN2 neurons (BR43)

SMILES | miR-132-3p level in NGN2-iNs
CCOC(=O)[C@H](CCc1ccccc1)N[C@@H](C)C(=O)N1C(=O)N(C)C[C@H]1C(=O)O [Imidapril HCl] | -0.733
C[C@@H]1C[C@H]2[C@@H]3CCC4=CC(=O)C=C[C@]4(C)[C@@]3(Cl)[C@@H](O)C[C@]2(C)[C@@]1(OC(=O)c1ccco1)C(=O)CCl [Mometasone furoate] | -0.932
c1coc(CNc2ncnc3[nH]cnc23)c1 [Kinetin] | 0.454
C[C@]12CCC3=C4CCC(=O)C=C4CC[C@H]3[C@@H]1CC[C@@]2(O)CC#N [Dienogest] | 0.554
COc1cc2ncnc(Nc3cccc(Cl)c3)c2cc1OC [AG-1478 (Tyrphostin AG-1478)] | 1.01
O=c1oc2cc(O)ccc2s1 [Tioxolone] | 0.0871
CN/C(=N\CCSCc1nc[nH]c1C)NC#N [Cimetidine] | 1.91
O=C(O)c1cc(/N=N/c2ccc(S(=O)(=O)Nc3ccccn3)cc2)ccc1O [Sulfasalazine] | -0.0564
C=C1c2cccc(O)c2C(O)=C2C(=O)[C@]3(O)C(O)=C(C(N)=O)C(=O)[C@@H](N(C)C)[C@@H]3[C@@H](O)[C@H]12 [Methacycline HCl] | 1.68
NC(=O)c1ccc(I)c([N+](=O)[O-])c1 [Iniparib (BSI-201)] | 0.167
COC(=O)Nc1ccc(-c2nc(N3CCOCC3)c3cnn(C4CCN(C(=O)OC)CC4)c3n2)cc1 | 0.306
CNC[C@H](O)[C@@H](O)[C@H](O)[C@H](O)CO [Meglumine] | 0.693
COC(=O)N[C@H](C(=O)N[C@@H](Cc1ccccc1)[C@@H](O)CN(Cc1ccc(-c2ccccn2)cc1)NC(=O)[C@@H](NC(=O)OC)C(C)(C)C)C(C)(C)C [Atazanavir Sulfate] | 0.0906
CCC[S+]([O-])c1ccc2[nH]c(NC(=O)OC)nc2c1 (stereo not drawn) [Albendazole Oxide] | -0.177
Cc1ccnc(NS(=O)(=O)c2ccc(N)cc2)n1 [Sulfamerazine] | -0.36
COc1ccc(C[C@H](N)C(=O)N[C@H]2[C@@H](O)[C@H](n3cnc4c(N(C)C)ncnc43)O[C@@H]2CO)cc1 [Puromycin 2HCl] | 1.83
O=c1ccn([C@@H]2O[C@H](CO)[C@@H](O)[C@H]2O)c(=O)[nH]1 [Uridine] | 0.0609
CC(C)n1c(/C=C/C(O)CC(O)CC(=O)O)c(-c2ccc(F)cc2)c2ccccc21 (stereo not drawn) [Fluvastatin Sodium] | -2.02
CCCCNc1cc(C(=O)O)cc(S(N)(=O)=O)c1Oc1ccccc1 [Bumetanide] | -0.395
CCN(CC)CCOC(=O)c1ccc(N)cc1 [Procaine HCl] | 0.213
O=C1CCC[C@@H]2[C@H]3CCC[N+]4([O-])CCC[C@@H](CN12)[C@@H]34 (stereo partly drawn) [Oxymatrine] | 0.117
COc1cccc2cc(-c3nc([C@H]4CC[C@H](C(=O)O)CC4)n4ncnc(N)c34)[nH]c12 | 0.132

As entered above.
Value for O=c1oc2cc(O)ccc2s1 [Tioxolone] under miR-132-3p level in NGN2-iNs: 0.0871
Value for NC(=O)c1ccc(I)c([N+](=O)[O-])c1 [Iniparib (BSI-201)] under miR-132-3p level in NGN2-iNs: 0.167
Value for CN/C(=N\CCSCc1nc[nH]c1C)NC#N [Cimetidine] under miR-132-3p level in NGN2-iNs: 1.91
Value for O=C(O)c1cc(/N=N/c2ccc(S(=O)(=O)Nc3ccccn3)cc2)ccc1O [Sulfasalazine] under miR-132-3p level in NGN2-iNs: -0.0564

Continued:

SMILES | miR-132-3p level in NGN2-iNs
O=C(O)Cc1cccc(OCCCN(Cc2cccc(C(F)(F)F)c2Cl)CC(c2ccccc2)c2ccccc2)c1 | -0.92
CC(=O)N[C@@H](CS)C(=O)O [Acetylcysteine] | 0.699
COc1cc(C2Oc3cc([C@H]4Oc5cc(O)cc(O)c5C(=O)[C@@H]4O)ccc3OC2CO)ccc1O (stereo partly drawn) [Silibinin] | -0.0665
COc1cc(C2Oc3cc([C@H]4Oc5cc(O)cc(O)c5C(=O)[C@@H]4O)ccc3OC2CO)ccc1O (stereo partly drawn) [Silymarin] | -1.48
O=c1cc(-c2ccccc2)oc2cc(O)c(O)c(O)c12 [Baicalein] | 0.771
CN(C)Cc1cccc(N=C(c2ccccc2)c2c(O)[nH]c3cc(C(=O)N(C)C)ccc23)c1 | 0.988
CC[C@H]1OC(=O)C[C@@H](O)[C@H](C)[C@@H](O[C@@H]2O[C@H](C)[C@@H](O)[C@H](N(C)C)[C@H]2O)[C@@H](CCN2C[C@H](C)C[C@H](C)C2)C[C@@H](C)C(=O)/C=C/C(C)=C/[C@@H]1CO[C@@H]1O[C@H](C)[C@@H](O)[C@@H](OC)[C@H]1OC [Tilmicosin] | -0.805
CNCCCC12CCC(c3ccccc31)c1ccccc12 [Maprotiline HCl] | 0.545
CCc1c(O)cc(O)c(C(=O)c2ccc(OCCN3CCOCC3)c(OC)c2)c1CC(=O)N(CCOC)CCOC | 0.914
Cc1coc2c1C(=O)C(=O)c1c-2ccc2c1CCCC2(C)C [Tanshinone IIA] | 0.372
COc1ccc2c(c1)c(CC(=O)N1CCOCC1)c(C)n2C(=O)c1ccc(Cl)cc1 | 2.17
C[C@@H]1O[C@@H](OC[C@H]2O[C@@H](Oc3c(-c4ccc(OCCO)c(OCCO)c4)oc4cc(OCCO)cc(O)c4c3=O)[C@H](O)[C@@H](O)[C@@H]2O)[C@H](O)[C@H](O)[C@H]1O [Troxerutin] | -0.16
CCN(CC)C(=O)/C(C#N)=C/c1cc(O)c(O)c([N+](=O)[O-])c1 [Entacapone] | 0.0389
C[C@]12C=CC(=O)C=C1CC[C@H]1[C@@H]3C[C@@H](O)[C@](O)(C(=O)CO)[C@@]3(C)C[C@H](O)[C@@]12F [Triamcinolone] | 1.64
CC1(C)O[C@@H]2C[C@H]3[C@@H]4CCC5=CC(=O)CC[C@]5(C)[C@@]4(F)[C@@H](O)C[C@]3(C)[C@]2(C(=O)CCl)O1 [Halcinonide] | -0.125
C[C@@H](O)[C@H]1C(=O)N2C(C(=O)O)=C(S[C@@H]3CN[C@H](C(=O)N(C)C)C3)[C@H](C)[C@H]12 [Meropenem] | -0.155
O=c1c(-c2ccc(O)cc2)coc2cc(O)ccc12 [Daidzein] | -0.273
CC1(C)CC[C@]2(C(=O)O)CC[C@]3(C)C(=CC[C@@H]4[C@@]5(C)CC[C@H](O)C(C)(C)[C@@H]5CC[C@]43C)[C@@H]2C1 [Oleanolic Acid] | -0.487
O=C(O)CCCCC(CCSCc1ccccc1)SCc1ccccc1 (stereo not drawn) | -0.743
C[C@H]1O[C@@H](n2cc(F)c(=O)[nH]c2=O)[C@H](O)[C@@H]1O [Doxifluridine] | -0.763
CC(C)(C)c1nc(-c2cccc(NS(=O)(=O)c3c(F)cccc3F)c2F)c(-c2ccnc(N)n2)s1 | 2.22
Cc1c(C(=O)Nc2ccc(N3CCC(N4CCOCC4)CC3)c(C#N)c2)cnn1-c1ccc(Cl)cc1 | 0.672

SMILES | miR-132-3p level in NGN2-iNs
Nc1c(CC(=O)O)cccc1C(=O)c1ccc(Br)cc1 [Bromfenac Sodium] | -0.984
COc1cccc(Nc2c(C(N)=O)cnc3c(C)cc(S(=O)(=O)c4cccc(C(=O)N(C)C)c4)cc23)c1 | 0.314
C/C(=C\C(=O)Nc1ccccc1C(=O)O)c1ccc2ccccc2c1 | -0.253
Cc1cc(Cl)ccc1OCCCC(=O)NO [Droxinostat] | -2.72
C[C@H](Cc1cc2c(c(C(N)=O)c1)N(CCCO)CC2)NCCOc1ccccc1OCC(F)(F)F [Silodosin] | 1.57
O=C(O)C1=CO[C@@H](O[C@@H]2O[C@H](CO)[C@@H](O)[C@H](O)[C@H]2O)[C@@H]2C(CO)=CC[C@H]12 [Geniposidic acid] | 1.26
COc1c(C)c2c(c(O)c1C/C=C(\C)CCC(=O)O)C(=O)OC2 [Mycophenolic acid] | -0.647
NS(=O)(=O)c1cc(Cl)c(Cl)c(S(N)(=O)=O)c1 [Dichlorphenamide (Diclofenamide)] | -0.943
CCCC1O[C@@H]2C[C@H]3[C@@H]4CCC5=CC(=O)C=C[C@]5(C)[C@H]4[C@@H](O)C[C@]3(C)[C@]2(C(=O)CO)O1 (stereo partly drawn) [Budesonide] | 1.47
COc1cc(C(C)=O)ccc1OCCCN1CCC(c2noc3cc(F)ccc23)CC1 [Iloperidone] | 0.546
CCOC(=O)[C@H](CCc1ccccc1)N[C@H]1CCCN2CCC[C@@H](C(=O)O)N2C1=O [Cilazapril Monohydrate] | -0.989
Cc1cc(C)c2c(c1)[C@@H](N(Cc1cc(C(F)(F)F)cc(C(F)(F)F)c1)c1nnn(C)n1)CCCN2C[C@H]1CC[C@H](C(=O)O)CC1 | -0.279
CNC(=O)c1ccccc1Nc1nc(Nc2ccc(N3CCOCC3)cc2OC)ncc1Cl | -1.03
CC1=C(C(=O)Nc2cc3cn[nH]c3cc2F)C(c2ccc(C(F)(F)F)cc2)CC(=O)N1 (stereo not drawn) | 0.515
CCCCN(Cc1ccc(C(=O)NO)cc1)C(=O)Nc1ccccc1 [Nexturastat A] | -1.11
COC(=O)N[C@H](C(=O)N1CCC[C@H]1c1ncc(-c2ccc(-c3ccc(-c4cnc([C@@H]5CCCN5C(=O)[C@@H](NC(=O)OC)C(C)C)[nH]4)cc3)cc2)[nH]1)C(C)C | 0.266
CCOc1cc(CC(=O)N[C@@H](CC(C)C)c2ccccc2N2CCCCC2)ccc1C(=O)O [Repaglinide] | 0.237
O=C(O)C(Cc1c[nH]c2ccccc12)N1C(=O)c2ccccc2C1=O (stereo not drawn) | -0.349
CCOC(=O)C1=C(C)NC(C)=C(C(=O)OCC)C1c1ccccc1/C=C/C(=O)OC(C)(C)C [Lacidipine] | -0.357
COc1ccc(C(=O)CC(=O)c2ccc(C(C)(C)C)cc2)cc1 [Avobenzone] | 0.0422
NC1CC1c1ccc(-c2cccc(O)c2)cc1 (stereo not drawn) | 0.493
CC(C)NCC(O)c1ccc(O)c(O)c1 (stereo not drawn) [Isoprenaline HCl] | 0.362

SMILES | miR-132-3p level in NGN2-iNs
CS(=O)(=O)N1CCN(Cc2cc3nc(-c4cccc5[nH]ncc45)nc(N4CCOCC4)c3s2)CC1 [Pictilisib (GDC-0941)] | -0.134
Nc1nc2c(ncn2COCCO)c(=O)[nH]1 [Aciclovir] | -0.155
COC(=O)C1=C(C)NC(C)=C(C(=O)OC2CCCN(Cc3ccccc3)C2)C1c1cccc([N+](=O)[O-])c1 (stereo not drawn) [Benidipine HCl] | -1.03
CCNC(=O)CCC/C=C\C[C@@H]1[C@@H](/C=C/[C@@H](O)CCc2ccccc2)[C@H](O)C[C@@H]1O [Bimatoprost] | 0.665
COc1ccc(S(=O)(=O)Nc2cccnc2Nc2ccc(O)cc2)cc1 | -2.85
O=C(Nc1cc2cc[nH]c2cn1)c1ccccc1 | -0.97
O=C1NCCc2[nH]c(-c3ccncc3)cc21 | -0.744
O=C(/C=C/c1ccc(O)c(O)c1)c1ccc(O)cc1O [Butein] | 0.21
O=C(CCCCCCC(=O)Nc1ccccc1)NO [Vorinostat (SAHA, MK0683)] | -0.154
Nc1nonc1C(=Nc1ccc(F)c(Cl)c1)NO | -0.38
NCCCCCNCC12CC3CC(CC(C3)C1)C2 | 0.348
CC1(C)O[C@@H]2C[C@H]3[C@@H]4CCC5=CC(=O)C=C[C@]5(C)[C@H]4[C@@H](O)C[C@]3(C)[C@]2(C(=O)CO)O1 [Desonide] | 0.673
O=C(O)c1ccc2c(c1)nc(Nc1cccc(Cl)c1)c1ccncc12 [Silmitasertib (CX-4945)] | 0.492
O=C1CC(=O)c2c(Cl)c(Cl)c(Cl)c(Cl)c21 | -0.272
COc1cc2/c(=N/c3ccc(Br)cc3F)nc[nH]c2cc1OCC1CCN(C)CC1 [Vandetanib (ZD6474)] | -0.307
CCN(CC)C(=S)SSC(=S)N(CC)CC [Disulfiram] | 1.58
C=C[C@@]1(C)CC(=O)[C@]2(O)[C@@]3(C)[C@@H](O)CCC(C)(C)[C@@H]3[C@H](O)[C@H](OC(C)=O)[C@@]2(C)O1 [Forskolin] | 2.54 ± 0.88
O=C(CCCCCN1C(=O)c2cccc3cccc(c23)C1=O)NO [Scriptaid] | 1.36
CCOC(=O)n1ccn(C)c1=S [Carbimazole] | 0.528
COc1cc(O)c2c(c1)C(=O)c1cc(C)cc(O)c1C2=O [Rheochrysidin] | -0.11
Cc1cc(NS(=O)(=O)c2ccc(N)cc2)no1 [Sulfamethoxazole] | -0.412
CC1(C)S[C@@H]2[C@H](NC(=O)[C@H](C(=O)O)c3ccsc3)C(=O)N2[C@H]1C(=O)O [Ticarcillin sodium] | -1.21
